Assay results reported in doi:10.1101/2023.01.22.525087.
No constants are given. Whether binding was seen depends on the method and setting. Binding seen in cells or lysates may run through a third protein. Some binding calls cover weakened binding; strength is not graded here. Values belong to the molecule of their own block, whether it stands above or below them.

Protein sequences, listed by entry. Tags and fused reporters are not part of them. Residues count along the entry.
UniProt P27467, residues 19-352: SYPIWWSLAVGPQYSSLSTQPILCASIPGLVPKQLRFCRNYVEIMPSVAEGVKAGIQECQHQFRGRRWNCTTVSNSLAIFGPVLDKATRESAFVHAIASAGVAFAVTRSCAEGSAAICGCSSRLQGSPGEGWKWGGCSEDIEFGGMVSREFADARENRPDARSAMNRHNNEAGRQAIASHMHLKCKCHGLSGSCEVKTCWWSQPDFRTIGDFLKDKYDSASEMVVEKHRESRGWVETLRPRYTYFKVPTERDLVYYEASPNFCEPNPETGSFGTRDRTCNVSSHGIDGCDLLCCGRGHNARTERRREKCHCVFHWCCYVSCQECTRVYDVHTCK
UniProt P02769, residues 25-607: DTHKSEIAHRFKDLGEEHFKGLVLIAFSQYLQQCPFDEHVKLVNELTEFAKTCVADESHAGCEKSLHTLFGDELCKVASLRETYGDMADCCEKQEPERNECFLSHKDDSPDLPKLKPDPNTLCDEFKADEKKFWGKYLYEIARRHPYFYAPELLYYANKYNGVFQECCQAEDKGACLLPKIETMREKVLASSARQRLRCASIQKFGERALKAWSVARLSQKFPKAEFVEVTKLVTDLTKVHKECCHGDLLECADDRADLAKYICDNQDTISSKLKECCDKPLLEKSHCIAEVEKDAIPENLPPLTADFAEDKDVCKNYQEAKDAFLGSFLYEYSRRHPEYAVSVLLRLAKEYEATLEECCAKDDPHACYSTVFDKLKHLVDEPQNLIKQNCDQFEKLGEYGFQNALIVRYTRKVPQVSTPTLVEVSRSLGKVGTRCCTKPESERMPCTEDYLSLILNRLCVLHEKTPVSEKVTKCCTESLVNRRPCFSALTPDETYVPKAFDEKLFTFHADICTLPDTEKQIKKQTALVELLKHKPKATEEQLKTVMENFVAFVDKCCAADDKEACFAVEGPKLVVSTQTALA

Biological target: Wnt3a (UniProt P27467)
Test: co-IP

binding: no binding (tested: 5 mg/mL BSA)
Molecule: bovine serum albumin (from UniProt P02769 25-607)

binding: binds
B1: afamin (protein, UniProt P43652 22-599)
chain: LPTQPRDIENFNSTQKFIEDNIEYITIIAFAQYVQEATFEEMEKLVKDMVEYKDRCMADKTLPECSKLPNNVLQEKICAMEGLPQKHNFSHCCSKVDAQRRLCFFYNKKSDVGFLPPFPTLDPEEKCQAYESNRESLLNHFLYEVARRNPFVFAPTLLTVAVHFEEVAKSCCEEQNKVNCLQTRAIPVTQYLKAFSSYQKHVCGALLKFGTKVVHFIYIAILSQKFPKIEFKELISLVEDVSSNYDGCCEGDVVQCIRDTSKVMNHICSKQDSISSKIKECCEKKIPERGQCIINSNKDDRPKDLSLREGKFTDSENVCQERDADPDTFFAKFTFEYSRRHPDLSIPELLRIVQIYKDLLRNCCNTENPPGCYRYAEDKFNETTEKSLKMVQQECKHFQNLGKDGLKYHYLIRLTKIAPQLSTEELVSLGEKMVTAFTTCCTLSEEFACVDNLADLVFGELCGVNENRTINPAVDHCCKTNFAFRRPCFESLKADKTYVPPPFSQDLFTFHADMCQSQNEELQRKTDRFLVNLVKLKHELTDEELQSLFTNFANVVDKCCKAESPEVCFNEESPKIGN
